Laboratory results taken from article PMC9066215.
No constants are given. Whether binding was seen depends on the method and setting. In cells and extracts the contact can be indirect. Some results given as binding are weak or reduced against the parent protein; the word gives no strength.

Protein sequences, listed by entry. Tags and fused reporters are not part of them.
UniProt P06493: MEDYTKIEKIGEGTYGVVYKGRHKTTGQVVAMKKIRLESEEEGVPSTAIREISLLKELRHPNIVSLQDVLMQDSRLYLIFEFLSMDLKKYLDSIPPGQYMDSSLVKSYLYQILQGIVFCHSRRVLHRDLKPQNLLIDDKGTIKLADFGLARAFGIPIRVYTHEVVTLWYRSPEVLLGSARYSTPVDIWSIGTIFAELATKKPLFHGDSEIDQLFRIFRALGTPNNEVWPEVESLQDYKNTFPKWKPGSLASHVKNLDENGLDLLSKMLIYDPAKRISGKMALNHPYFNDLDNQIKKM

Target: CDK1 (human) (UniProt P06493)
Assay: co-IP; cells lysed in ice-cold IP lysate; 1.2 mg total protein incubated with antibody overnight, then with 20 uL beads for 1-2 h at 4°C; Western blot; the precipitating antibody and the cell line are not stated

B1: cell division cycle associated 8 (CDCA8) (protein, UniProt Q53HL2 1-280)
chain: MAPRKGSSRVAKTNSLRRRKLASFLKDFDREVEIRIKQIESDRQNLLKEVDNLYNIEILRLPKALREMNWLDYFALGGNKQALEEAATADLDITEINKLTAEAIQTPLKSAKTRKVIQVDEMIVEEEEEEENERKNLQTARVKRCPPSKKRTQSIQGKGKGKRSSRANTVTPAVGRLEVSMVKPTPGLTPRFDSRVFKTPGLRTPAAGERIYNISGNGSPLADSKEIFLTVPVGGGESLRLLASDLQRHSIAQLDPEALGNIKKLSNRLAQICSSIRTHK
binding: binds
